Measured values from the supplement of paper PMC7661543.
± gives the standard deviation of the averaged measurements. The effect of the compound repeats well; differences between the knockouts mostly do not.

System: SKBR3
Assay: relative cell number vs DMSO control (72 h) (% of DMSO); higher = less growth inhibition (more cells)
Experimental: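 QMAP-Seq: a pool of 5 breast cancer cell lines (ZR-75-1, SKBR3, HCC-38, MDA-MB-231, BT-20), each carrying 12 doxycycline-inducible Cas9 sgRNA perturbations (11 knockouts plus non-targeting sgNT), was treated with compounds for 72 h at four 10-fold doses (10 nM-10 uM or 1 nM-1 uM range). Barcodes were amplified and sequenced, and cell number was interpolated from 293T spike-in standard curves. The result is expressed as % of the median of DMSO wells. Two biological replicates.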

[1] = sgRNA knockout: sgATF3, 1000 nM
[2] = sgRNA knockout: sgATF3, 10000 nM
[3] = sgRNA knockout: sgATF4, 1000 nM
[4] = sgRNA knockout: sgATF4, 10000 nM
[5] = sgRNA knockout: sgATF6, 1000 nM
[6] = sgRNA knockout: sgATF6, 10000 nM
[7] = sgRNA knockout: sgATG7, 1000 nM
[8] = sgRNA knockout: sgATG7, 10000 nM
[9] = sgRNA knockout: sgERN1, 1000 nM
[10] = sgRNA knockout: sgERN1, 10000 nM
[11] = sgRNA knockout: sgHSF1, 1000 nM
[12] = sgRNA knockout: sgHSF1, 10000 nM
[13] = sgRNA knockout: sgHSF2, 1000 nM
[14] = sgRNA knockout: sgHSF2, 10000 nM
[15] = sgRNA knockout: sgKEAP1, 100 nM
[16] = sgRNA knockout: sgKEAP1, 1000 nM
[17] = sgRNA knockout: sgKEAP1, 10000 nM
[18] = sgRNA knockout: sgNFE2L2, 10 nM
[19] = sgRNA knockout: sgNFE2L2, 100 nM
[20] = sgRNA knockout: sgNFE2L2, 1000 nM
[21] = sgRNA knockout: sgNFE2L2, 10000 nM
[22] = sgRNA knockout: sgSLC35F2, 10 nM
[23] = sgRNA knockout: sgSLC35F2, 100 nM
[24] = sgRNA knockout: sgSLC35F2, 1000 nM
[25] = sgRNA knockout: sgSLC35F2, 10000 nM
[26] = sgRNA knockout: sgXBP1, 1000 nM
[27] = sgRNA knockout: sgXBP1, 10000 nM

## CC(C)C[C@H](NC(=O)CNC(=O)c1cc(Cl)ccc1Cl)B(O)O [MLN2238]
sgRNA knockout: sgATF3, 10 nM
  relative cell number: 122 ± 18
sgRNA knockout: sgATF3, 100 nM
  relative cell number: 52.3 ± 4.9
[1]
  relative cell number: 8.14 ± 2.7
[2]
  relative cell number: 5.38 ± 5.1
sgRNA knockout: sgATF4, 10 nM
  relative cell number: 73.4 ± 1.4
sgRNA knockout: sgATF4, 100 nM
  relative cell number: 40.5 ± 6.6
[3]
  relative cell number: 9.76 ± 0.95
[4]
  relative cell number: 6.82 ± 4.8
sgRNA knockout: sgATF6, 10 nM
  relative cell number: 73.4 ± 15
sgRNA knockout: sgATF6, 100 nM
  relative cell number: 42.7 ± 13
[5]
  relative cell number: 11.2 ± 0.35
[6]
  relative cell number: 5.46 ± 3.4
sgRNA knockout: sgATG7, 10 nM
  relative cell number: 81 ± 27
sgRNA knockout: sgATG7, 100 nM
  relative cell number: 54.2 ± 15
[7]
  relative cell number: 15.9 ± 7.6
[8]
  relative cell number: 7.39 ± 2.1
sgRNA knockout: sgERN1, 10 nM
  relative cell number: 80.6 ± 12
sgRNA knockout: sgERN1, 100 nM
  relative cell number: 59.3 ± 3.8
[9]
  relative cell number: 11.5 ± 4.9
[10]
  relative cell number: 7.31 ± 5.6
sgRNA knockout: sgHSF1, 10 nM
  relative cell number: 68.8 ± 11
sgRNA knockout: sgHSF1, 100 nM
  relative cell number: 31.5 ± 7.2
[11]
  relative cell number: 5.21 ± 0.68
[12]
  relative cell number: 6.17 ± 4.4
sgRNA knockout: sgHSF2, 10 nM
  relative cell number: 90.3 ± 14
sgRNA knockout: sgHSF2, 100 nM
  relative cell number: 50.3 ± 6.1
[13]
  relative cell number: 12 ± 1.1
[14]
  relative cell number: 6.86 ± 2.5
sgRNA knockout: sgKEAP1, 10 nM
  relative cell number: 72.3 ± 3.4
[15]
  relative cell number: 48.7 ± 4
[16]
  relative cell number: 7.51 ± 1.6
[17]
  relative cell number: 5.28 ± 2.5
[18]
  relative cell number: 61.5 ± 7.5
[19]
  relative cell number: 36.1 ± 9.8
[20]
  relative cell number: 8.54 ± 1.6
[21]
  relative cell number: 6.22 ± 6.4
[22]
  relative cell number: 72.7 ± 6.6
[23]
  relative cell number: 40.4 ± 4.4
[24]
  relative cell number: 11.9 ± 0.86
[25]
  relative cell number: 8.66 ± 2.3
sgRNA knockout: sgXBP1, 10 nM
  relative cell number: 78.1 ± 15
sgRNA knockout: sgXBP1, 100 nM
  relative cell number: 52 ± 6.2
[26]
  relative cell number: 8.21 ± 0.083
[27]
  relative cell number: 5.33 ± 3.7

## CCC[C@H](NC(=O)/C(C#N)=C/c1cccc(Br)n1)c1ccccc1 [WP1130]
sgRNA knockout: sgATF3, 10 nM
  relative cell number: 99.9 ± 12
sgRNA knockout: sgATF3, 100 nM
  relative cell number: 109 ± 12
[1]
  relative cell number: 91.1 ± 2.3
[2]
  relative cell number: 5.42 ± 0.21
sgRNA knockout: sgATF4, 10 nM
  relative cell number: 94 ± 2.7
sgRNA knockout: sgATF4, 100 nM
  relative cell number: 94.8 ± 2.4
[3]
  relative cell number: 91.9 ± 20
[4]
  relative cell number: 7.67 ± 3.1
sgRNA knockout: sgATF6, 10 nM
  relative cell number: 104 ± 6.6
sgRNA knockout: sgATF6, 100 nM
  relative cell number: 82.6 ± 3.8
[5]
  relative cell number: 99.8 ± 1.8
[6]
  relative cell number: 9.44 ± 2.8
sgRNA knockout: sgATG7, 10 nM
  relative cell number: 100 ± 7
sgRNA knockout: sgATG7, 100 nM
  relative cell number: 112 ± 4.2
[7]
  relative cell number: 102 ± 17
[8]
  relative cell number: 5.67 ± 1.5
sgRNA knockout: sgERN1, 10 nM
  relative cell number: 115 ± 7.1
sgRNA knockout: sgERN1, 100 nM
  relative cell number: 86.6 ± 22
[9]
  relative cell number: 92.4 ± 38
[10]
  relative cell number: 9.67 ± 2.8
sgRNA knockout: sgHSF1, 10 nM
  relative cell number: 95.9 ± 1.8
sgRNA knockout: sgHSF1, 100 nM
  relative cell number: 92.3 ± 6.1
[11]
  relative cell number: 94.2 ± 2.9
[12]
  relative cell number: 7.8 ± 3.8
sgRNA knockout: sgHSF2, 10 nM
  relative cell number: 104 ± 6.3
sgRNA knockout: sgHSF2, 100 nM
  relative cell number: 101.7 ± 0.23
[13]
  relative cell number: 99.1 ± 5.7
[14]
  relative cell number: 8.44 ± 2.3
sgRNA knockout: sgKEAP1, 10 nM
  relative cell number: 100 ± 24
[15]
  relative cell number: 105 ± 10
[16]
  relative cell number: 89.3 ± 21
[17]
  relative cell number: 6.17 ± 0.14
[18]
  relative cell number: 89.6 ± 18
[19]
  relative cell number: 92.6 ± 8.1
[20]
  relative cell number: 101 ± 10
[21]
  relative cell number: 8.01 ± 2.5
[22]
  relative cell number: 103 ± 2.4
[23]
  relative cell number: 81.9 ± 2.2
[24]
  relative cell number: 86.7 ± 14
[25]
  relative cell number: 8.19 ± 5.4
sgRNA knockout: sgXBP1, 10 nM
  relative cell number: 112 ± 4.5
sgRNA knockout: sgXBP1, 100 nM
  relative cell number: 84 ± 6.5
[26]
  relative cell number: 87.2 ± 12
[27]
  relative cell number: 10 ± 4.1
